No constants are given. Whether binding was seen depends on the method and setting. For some assays here: Binding seen in cells or lysates may run through a third protein. Some results given as binding are weak or reduced against the parent protein; the word gives no strength.
What was measured:
[1] = molecular target: GST-CLIC4 wt (UniProt Q9Y696); assay: pull-down
[2] = molecular target: GST-Profilin-1 (human) (UniProt P07737); assay: pull-down
[3] = molecular target: 3XFLAG-CLIC4 C35A (UniProt Q9QYB1); assay: co-IP
[4] = molecular target: 3XFLAG-CLIC4 wild type (UniProt Q9QYB1); assay: co-IP

Sequences of proteins named here, by UniProt entry; tags and fusion partners are left off. A change or cut given only in a name is not applied to a line headed by its entry. Residues count along the entry.
UniProt Q9Y696, residues 1-251: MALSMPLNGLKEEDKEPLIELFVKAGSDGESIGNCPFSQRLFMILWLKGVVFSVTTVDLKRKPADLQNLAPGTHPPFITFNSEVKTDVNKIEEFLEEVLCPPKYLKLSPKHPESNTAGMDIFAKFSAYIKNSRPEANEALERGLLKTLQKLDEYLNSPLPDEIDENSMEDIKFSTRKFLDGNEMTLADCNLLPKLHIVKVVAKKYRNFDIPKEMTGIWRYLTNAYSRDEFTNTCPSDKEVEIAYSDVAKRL
UniProt P07737, residues 2-140: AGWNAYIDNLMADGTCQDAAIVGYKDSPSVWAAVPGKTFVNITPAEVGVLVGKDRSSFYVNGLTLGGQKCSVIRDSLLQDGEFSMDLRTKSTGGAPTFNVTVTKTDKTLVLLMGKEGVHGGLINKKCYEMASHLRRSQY
UniProt Q9QYB1: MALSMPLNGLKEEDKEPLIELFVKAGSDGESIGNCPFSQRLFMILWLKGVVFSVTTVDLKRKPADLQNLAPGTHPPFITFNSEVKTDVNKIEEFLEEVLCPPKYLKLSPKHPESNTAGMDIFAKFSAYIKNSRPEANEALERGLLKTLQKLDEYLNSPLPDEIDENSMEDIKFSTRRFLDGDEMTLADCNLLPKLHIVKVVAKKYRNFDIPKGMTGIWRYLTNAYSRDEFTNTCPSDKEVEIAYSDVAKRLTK

Profilin-1 (from UniProt P07737 2-140) was tested, and the binding [1] was “binds”.

“YFP-CLIC4 (wt) (from UniProt Q9Y696 1-251)” was tested, and the binding [2] was “binds”.

With “recombinant CLIC4 wt (from UniProt Q9Y696 1-251)” the binding [2] was “binds”.

GFP-PFN1 (from UniProt P07737 2-140) was tested, and the binding [3] was “no binding” and the binding [4] was “binds”.

Reference: article doi:10.1101/259259
